These results are taken from article PMC7819943, “Rice protein-binding microarrays: a tool to detect cis-acting elements near promoter regions in rice”.

Amino acid sequences for entries named in this document (tags omitted).
UniProt Q0JBA9, entry or part of it: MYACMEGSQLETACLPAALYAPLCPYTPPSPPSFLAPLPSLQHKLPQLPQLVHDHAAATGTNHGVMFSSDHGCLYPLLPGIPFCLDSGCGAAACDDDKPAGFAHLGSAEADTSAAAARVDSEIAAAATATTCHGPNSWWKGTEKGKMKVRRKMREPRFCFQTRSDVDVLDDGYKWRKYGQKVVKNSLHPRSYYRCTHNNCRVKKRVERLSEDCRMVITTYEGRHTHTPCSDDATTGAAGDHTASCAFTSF

The other results are listed elsewhere or left out.

This assay concerns the target OsWRKY34 (Oryza sativa, UniProt Q0JBA9 1-250). The assay can be described thus: protein-binding microarray (RPBM); PBS, 2% BSA, 51.3 ng/ul salmon testes DNA, 50 uM zinc acetate, 200 nM TF, 25 C, 1 h; high values mean tight binding. Particulars: protein: recombinant; tags: N-terminal polyhistidine and DsRed monomer fusion (pET32a); label: CyDye5-dUTP incorporated in the synthesized complementary strand; 3' TTTTT single-stranded linker to array surface; dsDNA, one strand shown. The method, boiled down: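 Transcription factors were each fused at the N-terminus to a polyhistidine tag plus DsRed and expressed in E. coli BL21-CodonPlus before Ni–NTA purification. Binding to a double-stranded custom Agilent array was carried out with 200 nM protein at 25 °C for 1 h in PBS, 2% BSA, salmon testes DNA and 50 µM zinc acetate. The binding signal is per-feature fluorescence intensity, in arbitrary units, on an Axon 4000B scanner.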
Consider “GCATTGGCCATTTTTCCTCTTTTGCCCGATTTTTGATTTTCGGAGTCACCTAGTGCAG”, for which the binding signal was 12900 fluorescence intensity (a.u.).
Take “TCCAGGTATATCAAATTTCATCCTTGCACAATCATTATTCCGGAGTCACCTAGTGCAG”: the binding signal was 8250 fluorescence intensity (a.u.).
Consider “ACCCGTCTCTCTTTCTTTCTTTCTCTCTCTCCTGTGTTTTCGGAGTCACCTAGTGCAG”, for which the binding signal is 8600 fluorescence intensity (a.u.).
Then “CGAACTCCTCTTTTTTCTTTTTCTAATTTCGAAATTTATTCGGAGTCACCTAGTGCAG”, with 10700 fluorescence intensity (a.u.).
Then “AATAGTGGAGGTAGGTGGGAAAAGTGAATGTTGGAGGTTTCGGAGTCACCTAGTGCAG”, with 13400 fluorescence intensity (a.u.); and “TGGTTAAATGTCAATTTTCTCGTTGGGAGTTGGGAGGGATCGGAGTCACCTAGTGCAG”, with 9280 fluorescence intensity (a.u.).
“CTCCACATCTAACTAATTCTACACCAGCTTATATATTTATCGGAGTCACCTAGTGCAG”: the binding signal is 8710 fluorescence intensity (a.u.).
For “TTGCTTTCCTTGGCCTCACGCTTGTTCCATGTTAGTTCGACGGAGTCACCTAGTGCAG” the value was 16100 fluorescence intensity (a.u.); for “TGTTTTTCCTATTTTGCTAGGAGTTGGGTATCTGGGACATCGGAGTCACCTAGTGCAG”, 8550 fluorescence intensity (a.u.); for “ACCGAGCAAATACCTCGCATTTCATTTTTTTTTTTGCCTTCGGAGTCACCTAGTGCAG”, 9170 fluorescence intensity (a.u.).
On to “TGAGAAAGAGAGAGAGAGGGAGATGGCTGGGGAGACGGGGCGGAGTCACCTAGTGCAG”, for which the binding signal was 9660 fluorescence intensity (a.u.).
Take “GACCAACACCGGCCCCTGTCTTTTCTTTTGTGGCATCGCCCGGAGTCACCTAGTGCAG”: the binding signal was 9590 fluorescence intensity (a.u.).
With “GGGGTTCACGTGGGTTTCACTCATTATGTTAGCCAGAACCCGGAGTCACCTAGTGCAG”, the binding signal was 8450 fluorescence intensity (a.u.).
As to “TTTTGGATTCCCTTTTCATCCATGGATGCATGTGTTCCTTCGGAGTCACCTAGTGCAG”, the binding signal was 8250 fluorescence intensity (a.u.).
For “CCACTTGCCCTTTGTCTTGTTCCTCCGCGCAGCTAGCTAGCGGAGTCACCTAGTGCAG”, the binding signal was 10300 fluorescence intensity (a.u.).
As for “TCTCTTTTCTCATTTTTTCGCTTGCCACATCATTTTCTATCGGAGTCACCTAGTGCAG”, the binding signal was 9600 fluorescence intensity (a.u.).
For “GAATGACTGCGTTGCCAGCTTTTTTTCTTTCCTTCTTTTCCGGAGTCACCTAGTGCAG”, the binding signal was 13500 fluorescence intensity (a.u.).
Regarding “ACCCTGCAGCTGTGTTTCCTTGTGTCCTCCTGTGCGTTGTCGGAGTCACCTAGTGCAG”, the binding signal was 15300 fluorescence intensity (a.u.).
Then “GCTAGCTACCCACTTGAGGCCACTTCTGTCTTCTGCTACCCGGAGTCACCTAGTGCAG”, with 9800 fluorescence intensity (a.u.).
In the case of “GACTATAATTCGACAAGCTGGTGTGCTTATTCTTGTCCGTCGGAGTCACCTAGTGCAG”, the binding signal is 9080 fluorescence intensity (a.u.).
With “ACCTTTATTTTTTAATATATAAACGCTATTGACTTTTTTTCGGAGTCACCTAGTGCAG”, the binding signal was 10000 fluorescence intensity (a.u.).
As for “AGGAGGTGTAGTAGGGTAGTGTAGGAGGTGTAGTGGAGTACGGAGTCACCTAGTGCAG”, the binding signal was 8450 fluorescence intensity (a.u.).
Turning to “CACCACCACCGCCGCCGCCCTTCCGCTCTCGCCTCTCGCTCGGAGTCACCTAGTGCAG”, the binding signal was 8210 fluorescence intensity (a.u.).
For “ACGAATCCTCTCATATGTGTGCGCGTAGTGACTTTTTTCCCGGAGTCACCTAGTGCAG”, the binding signal is 8420 fluorescence intensity (a.u.).
“TTTATCTCACCATGCATAATTGCAAGTATATTCCGTTCATCGGAGTCACCTAGTGCAG”: the binding signal was 9440 fluorescence intensity (a.u.).
On to “TGGCAATCTCACAAAGCTGAAGTTGTTGTGGTTATCATGTCGGAGTCACCTAGTGCAG”, for which the binding signal is 8410 fluorescence intensity (a.u.).
With “CATTTCACACTCGCGTATATATTCTTCTTTCCTTTTGTCTCGGAGTCACCTAGTGCAG”, the binding signal is 12600 fluorescence intensity (a.u.).
With “TCCAGCGACGTTGTGGTGGGTATCTGAGGGCTGAGACATGCGGAGTCACCTAGTGCAG”, the binding signal is 8110 fluorescence intensity (a.u.).
Take “ACCCCGCTTCCAGTTCTGACTCTGTTGCCTCTCTGCTTTCCGGAGTCACCTAGTGCAG”: the binding signal is 10200 fluorescence intensity (a.u.).
As to “CAAACATAGCTTTTCTTTTTTCTTTCATTTCTCGTGGGAACGGAGTCACCTAGTGCAG”, the binding signal is 8100 fluorescence intensity (a.u.).
Take “GAATGTTGATGCTGTTGATGCATGCACCTGCCGAAGGCCGCGGAGTCACCTAGTGCAG”: the binding signal was 9170 fluorescence intensity (a.u.).
For “CACCGTTAATTTTTTCTCACATGTTTGACCATTCATCTTACGGAGTCACCTAGTGCAG” the value was 14400 fluorescence intensity (a.u.); for “TACCATATTCGCGCCGGTTCGTTTTCGCTCCGTTTTCGATCGGAGTCACCTAGTGCAG”, 9680 fluorescence intensity (a.u.); for “GGGGATGGAGGTAGTATTTCTAAGATTTAAATTTTGTAGACGGAGTCACCTAGTGCAG”, 11100 fluorescence intensity (a.u.).
Consider “CATCTTCGACCTCGGCCCGCTCCTCCGCGACCTGCACGCGCGGAGTCACCTAGTGCAG”, for which the binding signal is 9570 fluorescence intensity (a.u.).
For “GAATTTCCGGAAATTTTCTCGGAATTACTAGAAATTTTGTCGGAGTCACCTAGTGCAG”, the binding signal was 9140 fluorescence intensity (a.u.).
For “CTCACCCTCGACCTGTCATCCTCCGCCACCTTCTTCGACTCGGAGTCACCTAGTGCAG” the value was 10000 fluorescence intensity (a.u.); for “GAGGTGAGGGGAGGGTCGCCGGAGACGGAGGTCTAGGGTTCGGAGTCACCTAGTGCAG”, 8240 fluorescence intensity (a.u.); for “AAACCATTTTTTTTATCTATTATCCTTTGACTGTTTAATTCGGAGTCACCTAGTGCAG”, 10500 fluorescence intensity (a.u.).
For “CTGGCGAGCAGAGCAGGGGAGGGGAAGGGAAGGTATCCTGCGGAGTCACCTAGTGCAG”, the binding signal was 8460 fluorescence intensity (a.u.).
In the case of “TACCCTTTTTTTGGGTAGGGTGGGTTGGATTTATTTATTTCGGAGTCACCTAGTGCAG”, the binding signal is 12300 fluorescence intensity (a.u.).
On to “GGGCTTTTTTTACCTAGTTGATTAGCATTCCGCCATGTTACGGAGTCACCTAGTGCAG”, for which the binding signal was 10700 fluorescence intensity (a.u.).
